In patent publication EP1202120A2, “Charge transport compound, elctrophotographic organophotoreceptor comprising the same, and electrographic imaging apparatus and method” (SAMSUNG ELECTRONICS CO., LTD., priority 2000, dated 2002):

Key:
[1] = Hole drift mobility by time of flight technique; conditions: 40:60 with PC; for Mobility µ: at 6.4×10^5 V/cm; for α: parameter characterizing mobility field dependence
[2] = Electrostatic testing of inverted dual-layered organophotoreceptors (QEA PDT-2000), Example 1; conditions: for Discharge: 0.05 seconds, 2 microjoules/cm^2 at 780 nm; for Dark Decay: 1-second dark decay after charge-up; for Vacc: acceptance voltage, charge-up at 8 kV, ambient temperature; for Vres: residual voltage after discharge
[3] = Electrostatic testing of inverted dual-layered organophotoreceptors (QEA PDT-2000), Example 2

Row | SMILES | Mobility Relative to HCTM1 [1] | Mobility µ [1] | α [1] | Discharge [2] [V] | Dark Decay [2] [V] | Vacc [2] [V] | Vres [2] [V] | Dark Decay ([3]; 1-second dark decay after charge-up) [V] | Vacc ([3]; acceptance voltage, charge-up at 8 kV, ambient temperature) [V] | Contrast ([3]; decrease in voltage one second after discharge, 2 microjoules/cm^2 at 780 nm) [V] | Vres ([3]; final residual voltage after eraser lamp) [V]
1 | CCCCCCCn1c2ccccc2c2cc(C=NN(CCCCCCCCCCN(N=Cc3ccc4c(c3)c3ccccc3n4CCCCCCC)c3ccccc3)c3ccccc3)ccc21 [E] | 1.88 | 1.7×10^-5 at 40:60 with PC cm^2/V.s | ~0.006 | 89 | 38 | 596 | 468 |  |  |  | 
2 | CCn1c2ccccc2c2cc(C=NN(CCCCCCCCCCN(N=Cc3ccc4c(c3)c3ccccc3n4CC)c3ccccc3)c3ccccc3)ccc21 [B] |  |  |  | 398 | 64 | 575 | 58 |  |  |  | 
3 | CCCCCCCn1c2ccccc2c2cc(C=NN(CCCCCN(N=Cc3ccc4c(c3)c3ccccc3n4CCCCCCC)c3ccccc3)c3ccccc3)ccc21 [F] | 0.72 | 6.5×10^-6 at 40:60 with PC cm^2/V.s | 0.0053 | 322 | 151 | 560 | 91 |  |  |  | 
4 | C(=NN(CCCCCN(N=Cc1ccc(N(c2ccccc2)c2ccccc2)cc1)c1ccccc1)c1ccccc1)c1ccc(N(c2ccccc2)c2ccccc2)cc1 [Compound M (m=5)] |  |  |  |  |  |  |  | 142 | 363 | 195 | 18
5 | CCn1c2ccccc2c2cc(C=NN(CCCCCN(N=Cc3ccc4c(c3)c3ccccc3n4CC)c3ccccc3)c3ccccc3)ccc21 [C] | 1.22 | 1.1×10^-5 at 40:60 with PC cm^2/V.s |  | 393 | 109 | 512 | 50 |  |  |  | 
